Experimental data from doi:10.1101/2020.07.25.220095.
No constants are given. Whether binding was seen depends on the method and setting. Binding seen in cells or lysates may run through a third protein. Tags and fused reporters may be left off the sequences shown.

Legend:
Assay in all cases: pull-down
[1] = target: T1, Vts1 (TAP-tagged version) (S. cerevisiae (TAP-tagged yeast strain)) (UniProt Q08831)
T1 sequence: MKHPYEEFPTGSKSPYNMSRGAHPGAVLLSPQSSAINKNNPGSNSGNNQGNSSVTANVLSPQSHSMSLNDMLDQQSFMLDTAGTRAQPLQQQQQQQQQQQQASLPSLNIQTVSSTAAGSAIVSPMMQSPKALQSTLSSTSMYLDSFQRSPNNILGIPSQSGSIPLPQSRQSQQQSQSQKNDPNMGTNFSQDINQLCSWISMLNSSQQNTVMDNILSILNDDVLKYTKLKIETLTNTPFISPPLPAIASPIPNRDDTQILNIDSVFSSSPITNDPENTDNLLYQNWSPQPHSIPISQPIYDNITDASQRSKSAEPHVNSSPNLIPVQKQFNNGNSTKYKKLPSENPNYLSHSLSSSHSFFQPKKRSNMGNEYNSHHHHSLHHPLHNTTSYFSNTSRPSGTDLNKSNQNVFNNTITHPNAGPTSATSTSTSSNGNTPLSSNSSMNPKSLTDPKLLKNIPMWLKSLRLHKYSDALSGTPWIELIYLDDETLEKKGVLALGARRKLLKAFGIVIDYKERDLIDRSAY

[2] = target: T2, Pub1 (TAP-tagged version) (S. cerevisiae (TAP-tagged yeast strain)) (UniProt P32588)
T2 sequence: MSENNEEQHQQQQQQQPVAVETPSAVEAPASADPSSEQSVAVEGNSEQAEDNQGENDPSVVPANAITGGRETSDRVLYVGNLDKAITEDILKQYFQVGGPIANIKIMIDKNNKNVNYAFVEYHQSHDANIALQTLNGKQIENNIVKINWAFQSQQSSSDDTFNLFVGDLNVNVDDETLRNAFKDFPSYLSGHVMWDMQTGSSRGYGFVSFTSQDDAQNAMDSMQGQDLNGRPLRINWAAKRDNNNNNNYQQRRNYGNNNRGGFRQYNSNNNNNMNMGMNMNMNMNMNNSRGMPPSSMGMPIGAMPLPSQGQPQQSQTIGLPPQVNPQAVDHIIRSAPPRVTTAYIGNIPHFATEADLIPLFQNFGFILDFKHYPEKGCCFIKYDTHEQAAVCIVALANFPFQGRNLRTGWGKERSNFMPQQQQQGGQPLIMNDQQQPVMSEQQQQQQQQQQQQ

[3] = target: T3, Puf4 (TAP-tagged version) (S. cerevisiae (TAP-tagged yeast strain)) (UniProt P25339)
T3 sequence: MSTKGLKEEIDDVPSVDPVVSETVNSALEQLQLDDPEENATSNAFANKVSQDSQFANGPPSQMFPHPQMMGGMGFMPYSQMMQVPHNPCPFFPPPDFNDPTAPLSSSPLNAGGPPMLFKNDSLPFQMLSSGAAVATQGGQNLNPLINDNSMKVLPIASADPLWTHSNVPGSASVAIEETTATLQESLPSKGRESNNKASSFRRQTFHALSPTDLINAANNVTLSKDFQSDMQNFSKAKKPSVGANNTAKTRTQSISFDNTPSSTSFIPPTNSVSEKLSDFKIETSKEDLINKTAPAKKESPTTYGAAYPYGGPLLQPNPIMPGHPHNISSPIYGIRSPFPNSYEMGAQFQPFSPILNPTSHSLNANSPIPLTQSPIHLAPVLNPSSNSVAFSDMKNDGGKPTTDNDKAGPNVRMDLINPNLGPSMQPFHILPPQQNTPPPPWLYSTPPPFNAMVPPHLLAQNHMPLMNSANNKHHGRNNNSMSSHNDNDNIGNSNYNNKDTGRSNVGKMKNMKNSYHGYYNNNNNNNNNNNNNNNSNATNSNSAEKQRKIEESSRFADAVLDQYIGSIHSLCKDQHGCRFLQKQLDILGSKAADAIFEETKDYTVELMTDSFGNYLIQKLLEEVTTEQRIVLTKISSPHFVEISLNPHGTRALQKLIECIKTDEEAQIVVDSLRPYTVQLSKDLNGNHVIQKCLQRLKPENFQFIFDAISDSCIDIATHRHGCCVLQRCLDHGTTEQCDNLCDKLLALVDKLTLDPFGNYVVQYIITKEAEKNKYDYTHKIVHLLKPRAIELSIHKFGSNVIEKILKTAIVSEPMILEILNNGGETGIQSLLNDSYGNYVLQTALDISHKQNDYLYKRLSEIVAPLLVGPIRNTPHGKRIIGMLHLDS

Measured: binding

B1: Rpb4 (protein, UniProt P20433 1-221)
chain: MNVSTSTFQTRRRRLKKVEEEENAATLQLGQEFQLKQINHQGEEEELIALNLSEARLVIKEALVERRRAFKRSQKKHKKKHLKHENANDETTAVEDEDDDLDEDDVNADDDDFMHSETREKELESIDVLLEQTTGGNNKDLKNTMQYLTNFSRFRDQETVGAVIQLLKSTGLHPFEVAQLGSLACDTADEAKTLIPSLNNKISDDELERILKELSNLETLY
no binding: all assays above
